From patent US20220331267A1, “METHODS AND COMPOSITIONS FOR TREATMENT OF DEMYELINATING DISORDERS” (Rush University Medical Center, priority 2019, published 2022)
At least one structure is not confirmed: it was looked up by name or label, or the drawing left a doubt. Marks after values point to notes of the source that are not given here.

Key:
[1] = target: T1, GFP-PPARα LBD (Homo sapiens, UniProt Q07869); experiment: GFP-affinity purification of cerebellar lysate with GFP-PPARα LBD, then EI-GCMS; format: binding; conditions: PPARα pulled-down cerebellar lysate
T1 construct: incubated with recombinant GFP-PPARα LBD and GFP-PPARβ LBD proteins
T1 sequence (Q07869 239-466 limits assumed): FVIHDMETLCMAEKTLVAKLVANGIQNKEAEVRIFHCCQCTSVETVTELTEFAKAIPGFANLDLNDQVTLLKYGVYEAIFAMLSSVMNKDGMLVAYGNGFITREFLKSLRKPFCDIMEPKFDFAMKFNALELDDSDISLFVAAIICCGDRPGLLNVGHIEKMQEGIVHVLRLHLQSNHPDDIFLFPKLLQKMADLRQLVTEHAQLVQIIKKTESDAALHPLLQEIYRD
From the text: Identification of unique cerebellar ligands of PPARβ: PPARβ regulates the expression of myelin genes in vitro in cultured oligodendrocytes (19). However, it is not known if PPARβ regulates the expression of these genes in cerebellum, one of the heavily myelinated regions of the brain. To test the expression of myelin proteins, first we performed dual immunofluorescence analyses of myelin marker MBP together with PPARβ in the cerebellar tissue of wild-type (n=3), Pparb-null (n=3) and Ppara-null (n=3) mice. […] Moreover, DAB immunostaining of MBP and immunoblot analyses of other myelin genes including PLP and MOG have corroborated that PPARβ indeed is involved in the expression of myelin genes in cerebellum. […] Therefore, regulation of PPARβ in cerebellum should be studied with prime importance. PPARβ is a nuclear receptor that requires binding with intracellular ligand to exert its biological function. Therefore, next we are interested to identify if cerebellum has any intracellular ligand for PPARβ. To test that, we performed a GFP-based affinity purification procedure (25,29) in which cerebellar lysate of wild-type cerebellum was incubated with recombinant GFP-PPARα LBD and GFP-PPARβ LBD proteins, then passed through GFP column, eluted, fractionated with chloroform-methanol procedure, and finally analyzed for small molecules in the chloroform fraction with electron ionization gas chromatography (EI-GCMS) method as described elsewhere (29). […] Accordingly, we detected two matching bands of both GFP-PPARαLBD and GFP-PPARβLBD, both having mol. wt. of 64 kDa, negating the possibility of unequal loading of sample in MS column.
Sample preparation: After treatment, mouse primary OPCs were homogenized in ice-cold nondetergent hypotonic buffer [10 mM HEPES (pH 7.9), 1.5 mM MgCl2, 10 mM KCl, 100 mM DTT, protease and phosphatase inhibitor cocktail]. […] The organic phase was collected, evaporated in the speedvac, reconstituted with 30 μL chloroform, and finally analyzed with GCMS. […]

[2] = target: T2, PPARβ (Mus musculus, UniProt P35396); experiment: PPRE-driven luciferase assay in cultured OPCs; format: cell-based; design: OPCs were transfected with PPRE-luciferase for 48 hrs and then treated with these compounds; endogenous in cells; host or cells: mouse primary OPCs from P1 cerebellum; conditions: different concentrations
T2 sequence (P35396 1-440): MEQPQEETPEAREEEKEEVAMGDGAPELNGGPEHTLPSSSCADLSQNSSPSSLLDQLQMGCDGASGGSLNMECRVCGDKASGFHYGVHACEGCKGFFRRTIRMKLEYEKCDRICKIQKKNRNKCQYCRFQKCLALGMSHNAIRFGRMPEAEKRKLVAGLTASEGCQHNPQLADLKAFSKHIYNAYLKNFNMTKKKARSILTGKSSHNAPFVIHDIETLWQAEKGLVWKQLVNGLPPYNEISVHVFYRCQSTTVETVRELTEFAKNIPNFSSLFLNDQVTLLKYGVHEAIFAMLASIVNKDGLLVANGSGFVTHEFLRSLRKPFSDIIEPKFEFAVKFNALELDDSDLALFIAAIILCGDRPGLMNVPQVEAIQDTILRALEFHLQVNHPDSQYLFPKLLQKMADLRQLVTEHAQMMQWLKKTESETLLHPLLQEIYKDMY

[3] = target: T3, flpparβ (Mus musculus, UniProt P35396); experiment: PPRE-luciferase assay in Pparb-null OPCs transduced with GFPflpparβ; format: cell-based; conditions: GFPflpparβ-infected Pparb-null OPCs, increasing doses
T3 construct: host or cells: Pparb-null mouse primary OPCs (lentiviral transduction)
T3 sequence (P35396 1-440): T2 sequence (P35396 1-440)

[4] = target: T4, GFP-PPARβ LBD (Homo sapiens, UniProt Q03181); experiment: GFP-affinity purification of cerebellar lysate with GFP-PPARβ LBD, then EI-GCMS; format: binding; conditions: PPARβ pulled-down cerebellar lysate
T4 construct: incubated with recombinant GFP-PPARα LBD and GFP-PPARβ LBD proteins
T4 sequence (Q03181 211-439 limits assumed): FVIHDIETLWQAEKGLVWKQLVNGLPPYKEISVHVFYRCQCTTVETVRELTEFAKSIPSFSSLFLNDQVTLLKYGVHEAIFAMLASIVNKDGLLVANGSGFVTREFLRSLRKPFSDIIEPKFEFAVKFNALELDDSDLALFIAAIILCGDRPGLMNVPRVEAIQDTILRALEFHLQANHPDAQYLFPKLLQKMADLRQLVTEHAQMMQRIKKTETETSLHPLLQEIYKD

[5] = target: T2, PPARβ; experiment: Ranking of 22 phenolic compounds by affinity (bulkiness of side group, ΔG, ΔTm)
[6] = adjusted to internal standard peak

Structure (SMILES) | % RA [1] | PPRE-luciferase activity [2] | PPRE-luciferase activity [3] | % RA [4] | Relative abundance [4, 6] | affinity towards PPARβ (category mark at name) ([5]; categorized by bulkiness, ΔG, ΔTm) | Rank ([5]; combined bulkiness of side group, ΔG and ΔTm) | Relative abundance [1, 6]
CC(C)(C)c1ccc(O)c(C(C)(C)C)c1 [DBP, 2,4-Di-tertbutyl phenol] | 0% | – | – | – | – | – | – | –
CC(C)(C)c1cccc(C(C)(C)C)c1 [DBB, 1,3-Di-tertbutyl benzene] | 0% | increased the PPRE-luciferase activity in a dose-dependent manner | increased PPRE-luciferase activity | 35.593% | 0.3559 | 1,3-DB Benzene (DBB)* | 6 | 0
